According to article PMC12397353:
No constants are given. Whether binding was seen depends on the method and setting. Binding seen in cells or lysates may run through a third protein. Some results given as binding are weak or reduced against the parent protein; the word gives no strength.

Amino acid sequences for entries named in this document (tags omitted). Residues count along the entry.
UniProt Q63604, residues 32-821: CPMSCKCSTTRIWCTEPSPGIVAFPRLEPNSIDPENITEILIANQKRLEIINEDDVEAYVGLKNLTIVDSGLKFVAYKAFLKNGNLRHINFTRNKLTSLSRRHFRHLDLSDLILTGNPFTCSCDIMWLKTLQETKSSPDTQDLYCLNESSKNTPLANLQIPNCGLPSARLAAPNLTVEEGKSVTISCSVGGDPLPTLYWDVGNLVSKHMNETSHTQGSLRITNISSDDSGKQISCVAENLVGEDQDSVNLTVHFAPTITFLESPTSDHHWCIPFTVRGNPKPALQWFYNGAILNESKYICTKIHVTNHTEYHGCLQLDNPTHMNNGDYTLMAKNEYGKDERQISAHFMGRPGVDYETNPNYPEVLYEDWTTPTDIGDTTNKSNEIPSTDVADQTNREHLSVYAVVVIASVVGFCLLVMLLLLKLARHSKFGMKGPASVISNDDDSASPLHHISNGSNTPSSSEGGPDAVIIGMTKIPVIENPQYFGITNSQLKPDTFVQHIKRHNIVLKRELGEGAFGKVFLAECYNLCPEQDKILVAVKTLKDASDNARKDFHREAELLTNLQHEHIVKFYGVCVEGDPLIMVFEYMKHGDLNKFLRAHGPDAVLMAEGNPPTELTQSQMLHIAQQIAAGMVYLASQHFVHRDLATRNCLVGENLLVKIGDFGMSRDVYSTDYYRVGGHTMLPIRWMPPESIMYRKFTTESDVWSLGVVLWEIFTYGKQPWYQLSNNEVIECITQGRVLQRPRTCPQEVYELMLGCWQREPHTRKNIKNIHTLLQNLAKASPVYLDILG
UniProt Q9JJ50: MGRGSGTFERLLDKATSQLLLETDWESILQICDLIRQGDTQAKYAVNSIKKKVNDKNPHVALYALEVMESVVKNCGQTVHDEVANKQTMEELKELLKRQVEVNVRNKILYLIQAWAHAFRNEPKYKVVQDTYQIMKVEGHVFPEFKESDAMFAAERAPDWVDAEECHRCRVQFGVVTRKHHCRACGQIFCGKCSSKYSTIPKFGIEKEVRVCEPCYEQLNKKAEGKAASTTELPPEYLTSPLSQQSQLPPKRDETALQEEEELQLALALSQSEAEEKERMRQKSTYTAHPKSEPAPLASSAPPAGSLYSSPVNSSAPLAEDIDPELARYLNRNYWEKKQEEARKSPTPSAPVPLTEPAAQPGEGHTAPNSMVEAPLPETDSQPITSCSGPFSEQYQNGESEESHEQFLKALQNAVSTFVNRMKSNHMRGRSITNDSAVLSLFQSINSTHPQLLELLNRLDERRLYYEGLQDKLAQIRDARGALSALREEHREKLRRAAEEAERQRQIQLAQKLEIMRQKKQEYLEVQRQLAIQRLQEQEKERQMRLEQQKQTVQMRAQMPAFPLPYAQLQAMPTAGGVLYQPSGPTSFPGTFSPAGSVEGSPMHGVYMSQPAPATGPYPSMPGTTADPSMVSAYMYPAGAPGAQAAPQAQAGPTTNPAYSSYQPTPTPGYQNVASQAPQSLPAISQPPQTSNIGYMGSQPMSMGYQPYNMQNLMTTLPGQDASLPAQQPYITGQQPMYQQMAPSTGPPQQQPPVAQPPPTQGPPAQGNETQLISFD

Molecular target: full-length tropomyosin-related kinase B receptor (TrkB-FL) (rat (endogenous in primary cortical cultures)) (UniProt Q63604)
Assay: co-IP; immunoprecipitation with the generic TrkB antibody panTrkB from lysates of rat cortical cultures (1% NP-40, 80 mM NaCl, 20 mM EDTA, 20 mM Tris-HCl pH 8), Protein G agarose; blot for TrkB-FL Ct and Hrs; cultures treated with NMDA or BDNF

hepatocyte growth factor-regulated tyrosine kinase substrate (Hrs) (from UniProt Q9JJ50 1-776)
binding: binds
